Laboratory results as given in publication PMC5384083.
These are yes or no findings as the source states them, for the method shown. In cells and extracts the contact can be indirect. Binding can be weak; no strength is given.

Target: T1, Retinoblastoma protein (Rb), endogenous (human (endogenous in MCF7 and MDA-MB-453)) (UniProt P06400)
T1 sequence: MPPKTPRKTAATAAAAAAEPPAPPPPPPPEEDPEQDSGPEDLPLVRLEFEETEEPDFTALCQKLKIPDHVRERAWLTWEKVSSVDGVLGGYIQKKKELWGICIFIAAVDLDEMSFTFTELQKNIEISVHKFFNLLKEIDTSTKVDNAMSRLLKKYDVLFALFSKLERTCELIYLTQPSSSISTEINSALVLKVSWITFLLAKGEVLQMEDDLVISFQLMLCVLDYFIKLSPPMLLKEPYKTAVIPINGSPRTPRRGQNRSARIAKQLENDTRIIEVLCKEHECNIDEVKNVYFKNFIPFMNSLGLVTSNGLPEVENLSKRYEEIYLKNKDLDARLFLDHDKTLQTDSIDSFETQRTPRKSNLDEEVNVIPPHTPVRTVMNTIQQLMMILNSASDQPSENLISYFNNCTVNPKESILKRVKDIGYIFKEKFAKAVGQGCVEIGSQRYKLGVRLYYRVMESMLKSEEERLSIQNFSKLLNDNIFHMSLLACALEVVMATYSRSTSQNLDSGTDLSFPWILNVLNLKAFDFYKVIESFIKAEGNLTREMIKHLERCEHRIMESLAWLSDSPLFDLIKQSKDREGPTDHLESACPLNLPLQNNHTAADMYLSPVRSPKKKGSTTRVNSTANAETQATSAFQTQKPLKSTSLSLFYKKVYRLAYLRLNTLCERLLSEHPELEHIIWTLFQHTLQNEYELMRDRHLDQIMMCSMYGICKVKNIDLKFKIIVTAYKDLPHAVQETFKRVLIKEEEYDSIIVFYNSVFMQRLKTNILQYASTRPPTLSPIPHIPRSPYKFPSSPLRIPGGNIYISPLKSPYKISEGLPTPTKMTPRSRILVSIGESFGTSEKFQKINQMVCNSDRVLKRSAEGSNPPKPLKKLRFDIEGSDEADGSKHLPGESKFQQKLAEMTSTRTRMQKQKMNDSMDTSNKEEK
Test: co-IP; extracts of MCF7 cells, endogenous proteins; immunoprecipitated with Rb, CBP, FoxM1 or P3 (phospho-FoxM1) antibody; blots with pan-FoxM1, P3, CBP, Rb, DNMT3b antibodies; in one panel cells treated with BI 2536 (100 nM, 24 h) or DMSO

For “FoxM1, endogenous (detected with pan-FoxM1 antibody) (human (endogenous in MCF7))”, the binding was “binds”.
